Publication PMC8067709, “Crystal Structure of the Epo1-Bem3 Complex for Bud Growth” (International Journal of Molecular Sciences, 2021)
Results are given in words; binding and its absence hold for the method and conditions named. Where a sequence is shown, tags or fusion partners need not be part of it.

Tests used:
[1] = target: T1, Scs2-Msp (1-128), N-His (Saccharomyces cerevisiae) (UniProt P40075); test: MST; Monolith NT.115; RED-tris-NTA labeled N-His Scs2-Msp (100 nM) with a serial dilution of Epo1, Bem3 or EB complex from 2 mM; 20 mM Tris-HCl pH 8.0, 150 mM NaCl, 4 mM MgCl2, 0.05% Tween 20; both purified
T1 sequence (chain, RED-tris-NTA fluorescent dye label (MST); 15N-labeled (NMR)): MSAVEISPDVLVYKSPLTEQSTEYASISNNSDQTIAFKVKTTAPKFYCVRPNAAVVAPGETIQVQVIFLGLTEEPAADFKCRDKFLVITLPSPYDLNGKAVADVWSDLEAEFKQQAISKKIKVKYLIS

[2] = target: T1, Scs2-Msp (1-128), N-His (Saccharomyces cerevisiae); test: NMR titration; 1H-15N HSQC of 0.5 mM 15N-labeled Scs2-Msp (1-128) without and with unlabeled partner at molar ratios 1:5 and 1:10; 800 MHz, 303 K; both purified

B1: Bem3^CC1 (1-99) with 6xHis tag, isolated protein (domain or fragment, Saccharomyces cerevisiae, UniProt P32873 1-99, looked up)
chain: MTDNLTTTHGGSTTLELLAQYNDHRSKKDKSIEHIEKGTCSGKERNPSYDEIFTENIKLKLQVQEYETEIESLEKVIDMLQKNREASLEVVLEQVQNDS
notes: Bem3, Saccharomyces cerevisiae, residues 1-99 (CC1 domain); Dimer in solution by MALS; theoretical molecular mass printed as 11.39 kDa; also called N-His-unlabeled Bem3^CC1; wild-type (wt) Bem3^CC1; source: pET-22b construct, purified (Hitrap Q ion-exchange); not shown: 6xHis, N-terminal, kept
- binding [1]: no binding (tested: 2 mM)
- binding [2]: no binding (tested: molar ratio of 1:10 to 0.5 mM Scs2-Msp)
